From the supplement of paper PMC10849652
The list shows a part of the results.

Chains of the proteins cited; added tags and fusions are not shown. Lines headed by an entry give the natural chain unless they say otherwise; changes in a name come on top.
UniProt O15357: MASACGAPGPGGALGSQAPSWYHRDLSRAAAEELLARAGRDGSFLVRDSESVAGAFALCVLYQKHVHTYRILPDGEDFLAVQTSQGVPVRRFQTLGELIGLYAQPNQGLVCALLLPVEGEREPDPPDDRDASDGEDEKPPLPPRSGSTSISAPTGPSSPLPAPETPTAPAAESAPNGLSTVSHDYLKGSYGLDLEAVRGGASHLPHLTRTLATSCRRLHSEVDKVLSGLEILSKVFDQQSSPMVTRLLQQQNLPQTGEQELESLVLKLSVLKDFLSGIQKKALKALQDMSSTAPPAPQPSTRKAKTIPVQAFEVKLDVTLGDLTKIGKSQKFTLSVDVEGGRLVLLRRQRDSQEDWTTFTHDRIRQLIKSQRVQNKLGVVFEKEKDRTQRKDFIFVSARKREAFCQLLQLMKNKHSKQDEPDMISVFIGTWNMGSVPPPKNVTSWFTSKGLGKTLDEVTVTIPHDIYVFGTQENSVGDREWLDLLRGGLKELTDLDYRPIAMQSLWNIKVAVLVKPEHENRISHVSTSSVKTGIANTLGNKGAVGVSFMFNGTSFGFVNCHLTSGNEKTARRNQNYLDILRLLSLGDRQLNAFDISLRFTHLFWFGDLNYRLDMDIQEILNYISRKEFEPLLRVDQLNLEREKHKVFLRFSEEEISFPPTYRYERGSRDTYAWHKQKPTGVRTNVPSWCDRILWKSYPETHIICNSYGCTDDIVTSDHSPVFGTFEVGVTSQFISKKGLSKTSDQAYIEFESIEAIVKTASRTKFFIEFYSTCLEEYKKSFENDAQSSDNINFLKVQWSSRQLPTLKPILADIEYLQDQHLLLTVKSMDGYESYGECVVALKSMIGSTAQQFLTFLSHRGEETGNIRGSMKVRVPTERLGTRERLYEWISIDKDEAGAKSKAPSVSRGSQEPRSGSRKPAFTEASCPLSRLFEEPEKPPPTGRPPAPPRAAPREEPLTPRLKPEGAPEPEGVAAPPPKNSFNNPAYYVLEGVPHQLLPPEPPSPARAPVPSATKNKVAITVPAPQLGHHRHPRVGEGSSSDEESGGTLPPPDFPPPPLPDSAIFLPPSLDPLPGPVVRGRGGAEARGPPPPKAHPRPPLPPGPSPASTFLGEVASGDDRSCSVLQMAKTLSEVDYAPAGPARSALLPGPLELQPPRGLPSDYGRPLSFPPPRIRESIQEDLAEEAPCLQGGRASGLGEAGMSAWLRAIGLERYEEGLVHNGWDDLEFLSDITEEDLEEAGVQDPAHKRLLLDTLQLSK
UniProt Q14653: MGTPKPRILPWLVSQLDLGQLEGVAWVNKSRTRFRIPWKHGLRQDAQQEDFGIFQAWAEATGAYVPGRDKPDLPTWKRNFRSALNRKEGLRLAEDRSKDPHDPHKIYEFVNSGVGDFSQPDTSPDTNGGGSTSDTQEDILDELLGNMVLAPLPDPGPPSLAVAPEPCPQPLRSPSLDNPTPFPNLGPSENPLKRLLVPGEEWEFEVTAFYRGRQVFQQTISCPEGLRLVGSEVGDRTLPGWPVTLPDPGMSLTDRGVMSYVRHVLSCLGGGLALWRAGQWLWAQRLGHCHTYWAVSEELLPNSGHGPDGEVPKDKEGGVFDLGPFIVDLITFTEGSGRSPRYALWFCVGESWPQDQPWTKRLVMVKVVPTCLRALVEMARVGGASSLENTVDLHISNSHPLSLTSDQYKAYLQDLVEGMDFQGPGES
UniProt Q16891: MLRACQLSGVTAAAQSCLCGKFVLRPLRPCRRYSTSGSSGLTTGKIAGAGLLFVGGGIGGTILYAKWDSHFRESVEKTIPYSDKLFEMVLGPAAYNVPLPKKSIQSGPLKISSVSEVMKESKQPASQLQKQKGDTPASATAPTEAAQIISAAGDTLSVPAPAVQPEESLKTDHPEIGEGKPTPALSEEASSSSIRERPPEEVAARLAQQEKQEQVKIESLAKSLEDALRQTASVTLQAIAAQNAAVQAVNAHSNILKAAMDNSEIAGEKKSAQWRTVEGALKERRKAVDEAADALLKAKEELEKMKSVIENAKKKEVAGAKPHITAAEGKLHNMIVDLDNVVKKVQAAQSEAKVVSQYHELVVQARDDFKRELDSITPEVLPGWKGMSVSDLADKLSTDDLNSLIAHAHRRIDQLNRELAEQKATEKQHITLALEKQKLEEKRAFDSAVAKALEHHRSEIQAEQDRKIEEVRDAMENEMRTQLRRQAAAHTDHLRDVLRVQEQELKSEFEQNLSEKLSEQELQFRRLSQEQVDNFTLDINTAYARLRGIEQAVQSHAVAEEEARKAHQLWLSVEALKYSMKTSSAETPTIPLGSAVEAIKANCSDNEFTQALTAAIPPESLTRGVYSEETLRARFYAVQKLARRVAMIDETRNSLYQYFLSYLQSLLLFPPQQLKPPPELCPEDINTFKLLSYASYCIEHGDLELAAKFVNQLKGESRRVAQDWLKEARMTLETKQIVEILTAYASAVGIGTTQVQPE
UniProt Q14624: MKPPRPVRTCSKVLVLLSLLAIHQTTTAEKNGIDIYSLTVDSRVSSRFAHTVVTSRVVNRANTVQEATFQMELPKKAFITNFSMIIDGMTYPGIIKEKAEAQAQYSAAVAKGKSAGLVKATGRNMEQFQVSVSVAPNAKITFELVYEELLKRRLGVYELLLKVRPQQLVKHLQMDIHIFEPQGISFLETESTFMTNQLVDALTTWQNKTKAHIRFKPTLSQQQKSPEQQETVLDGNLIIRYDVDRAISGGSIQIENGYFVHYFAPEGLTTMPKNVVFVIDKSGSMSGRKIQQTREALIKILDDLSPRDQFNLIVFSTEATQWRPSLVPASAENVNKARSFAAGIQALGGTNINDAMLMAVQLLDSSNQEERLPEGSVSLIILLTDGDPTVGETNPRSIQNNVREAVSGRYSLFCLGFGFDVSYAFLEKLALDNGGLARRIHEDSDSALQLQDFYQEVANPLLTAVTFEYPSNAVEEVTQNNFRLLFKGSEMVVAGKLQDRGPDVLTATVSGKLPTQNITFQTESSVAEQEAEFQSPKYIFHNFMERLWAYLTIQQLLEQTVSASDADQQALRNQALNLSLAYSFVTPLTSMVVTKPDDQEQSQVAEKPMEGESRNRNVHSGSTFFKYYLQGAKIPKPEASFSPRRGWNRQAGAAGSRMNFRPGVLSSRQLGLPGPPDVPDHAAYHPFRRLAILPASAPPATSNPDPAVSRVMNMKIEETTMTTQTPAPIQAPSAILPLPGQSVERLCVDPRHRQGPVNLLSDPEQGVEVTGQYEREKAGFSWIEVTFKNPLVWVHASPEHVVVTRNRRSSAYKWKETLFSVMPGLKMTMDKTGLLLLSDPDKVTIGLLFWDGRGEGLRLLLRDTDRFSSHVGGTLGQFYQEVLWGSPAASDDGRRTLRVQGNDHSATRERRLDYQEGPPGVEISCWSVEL
UniProt Q68E01, whole entry, looked up: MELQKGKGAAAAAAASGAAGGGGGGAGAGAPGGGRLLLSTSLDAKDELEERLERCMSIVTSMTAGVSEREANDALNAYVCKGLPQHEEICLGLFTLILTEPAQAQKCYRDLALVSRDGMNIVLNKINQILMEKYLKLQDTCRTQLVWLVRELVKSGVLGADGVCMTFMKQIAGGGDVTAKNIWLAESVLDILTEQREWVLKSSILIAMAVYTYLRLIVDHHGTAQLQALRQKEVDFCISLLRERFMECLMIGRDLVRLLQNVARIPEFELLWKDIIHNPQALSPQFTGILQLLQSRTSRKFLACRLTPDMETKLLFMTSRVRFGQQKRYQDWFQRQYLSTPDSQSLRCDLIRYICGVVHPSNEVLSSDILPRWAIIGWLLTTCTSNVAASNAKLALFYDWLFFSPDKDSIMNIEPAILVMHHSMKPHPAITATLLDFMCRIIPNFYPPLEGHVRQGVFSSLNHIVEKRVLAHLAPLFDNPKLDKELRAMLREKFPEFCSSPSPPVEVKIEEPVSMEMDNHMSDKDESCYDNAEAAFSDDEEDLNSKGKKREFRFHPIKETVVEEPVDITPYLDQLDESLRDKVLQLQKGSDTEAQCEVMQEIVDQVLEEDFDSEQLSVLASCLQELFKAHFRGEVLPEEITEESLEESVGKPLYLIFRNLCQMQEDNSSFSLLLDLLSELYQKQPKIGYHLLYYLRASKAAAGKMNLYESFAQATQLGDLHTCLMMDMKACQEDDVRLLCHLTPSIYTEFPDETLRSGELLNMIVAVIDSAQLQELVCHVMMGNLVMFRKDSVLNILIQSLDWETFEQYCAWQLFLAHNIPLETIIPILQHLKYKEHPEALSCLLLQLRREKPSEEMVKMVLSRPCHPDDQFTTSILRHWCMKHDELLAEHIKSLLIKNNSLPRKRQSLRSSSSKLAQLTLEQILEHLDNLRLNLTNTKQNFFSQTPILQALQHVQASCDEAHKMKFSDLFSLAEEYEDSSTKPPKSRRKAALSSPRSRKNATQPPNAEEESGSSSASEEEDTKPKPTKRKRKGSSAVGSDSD
UniProt P49441: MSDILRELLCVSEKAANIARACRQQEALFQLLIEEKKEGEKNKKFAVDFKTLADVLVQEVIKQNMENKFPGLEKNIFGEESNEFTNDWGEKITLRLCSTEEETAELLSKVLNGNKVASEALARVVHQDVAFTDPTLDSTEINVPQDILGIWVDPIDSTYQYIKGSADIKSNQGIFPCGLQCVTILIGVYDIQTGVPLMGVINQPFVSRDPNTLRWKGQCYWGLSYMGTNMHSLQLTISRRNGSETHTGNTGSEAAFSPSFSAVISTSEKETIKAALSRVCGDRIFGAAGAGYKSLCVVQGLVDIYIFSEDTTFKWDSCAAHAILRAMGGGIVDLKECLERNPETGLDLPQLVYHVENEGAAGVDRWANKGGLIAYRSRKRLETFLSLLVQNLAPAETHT
UniProt P48200: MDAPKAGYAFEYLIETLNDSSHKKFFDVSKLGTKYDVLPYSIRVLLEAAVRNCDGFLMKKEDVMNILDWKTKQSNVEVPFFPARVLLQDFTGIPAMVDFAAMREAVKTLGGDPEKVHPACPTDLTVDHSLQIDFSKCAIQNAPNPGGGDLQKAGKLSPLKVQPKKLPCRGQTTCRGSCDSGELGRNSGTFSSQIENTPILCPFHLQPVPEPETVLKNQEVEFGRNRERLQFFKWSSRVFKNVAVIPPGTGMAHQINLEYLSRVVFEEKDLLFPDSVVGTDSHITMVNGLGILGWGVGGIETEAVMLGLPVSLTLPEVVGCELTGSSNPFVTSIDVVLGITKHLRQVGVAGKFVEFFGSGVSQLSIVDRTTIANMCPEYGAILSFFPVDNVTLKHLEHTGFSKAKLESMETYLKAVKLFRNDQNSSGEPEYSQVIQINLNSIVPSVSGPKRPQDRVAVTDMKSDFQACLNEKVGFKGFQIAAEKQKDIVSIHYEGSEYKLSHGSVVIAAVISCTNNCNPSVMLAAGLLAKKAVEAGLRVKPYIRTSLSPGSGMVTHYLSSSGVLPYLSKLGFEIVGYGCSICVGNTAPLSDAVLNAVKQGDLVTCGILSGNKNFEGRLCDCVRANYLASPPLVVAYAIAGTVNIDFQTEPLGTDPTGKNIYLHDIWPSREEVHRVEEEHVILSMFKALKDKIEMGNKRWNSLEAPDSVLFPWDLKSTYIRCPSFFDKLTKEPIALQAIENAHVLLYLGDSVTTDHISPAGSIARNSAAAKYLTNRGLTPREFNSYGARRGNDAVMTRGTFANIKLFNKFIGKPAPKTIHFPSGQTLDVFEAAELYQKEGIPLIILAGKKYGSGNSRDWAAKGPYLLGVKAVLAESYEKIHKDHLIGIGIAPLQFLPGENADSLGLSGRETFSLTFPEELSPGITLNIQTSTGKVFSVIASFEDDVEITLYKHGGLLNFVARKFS
UniProt Q9H0C8: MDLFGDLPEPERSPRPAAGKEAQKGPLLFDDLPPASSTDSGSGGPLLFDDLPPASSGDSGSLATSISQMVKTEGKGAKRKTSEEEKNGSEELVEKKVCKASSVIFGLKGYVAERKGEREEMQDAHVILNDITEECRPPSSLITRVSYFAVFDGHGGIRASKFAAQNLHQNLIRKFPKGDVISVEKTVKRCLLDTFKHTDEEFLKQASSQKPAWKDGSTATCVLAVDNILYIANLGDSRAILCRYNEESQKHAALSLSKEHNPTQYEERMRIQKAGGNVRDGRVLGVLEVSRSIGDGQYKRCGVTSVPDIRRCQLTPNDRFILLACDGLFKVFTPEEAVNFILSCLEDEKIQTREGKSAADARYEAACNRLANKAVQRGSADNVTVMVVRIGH
UniProt Q9Y6K9, whole entry, looked up: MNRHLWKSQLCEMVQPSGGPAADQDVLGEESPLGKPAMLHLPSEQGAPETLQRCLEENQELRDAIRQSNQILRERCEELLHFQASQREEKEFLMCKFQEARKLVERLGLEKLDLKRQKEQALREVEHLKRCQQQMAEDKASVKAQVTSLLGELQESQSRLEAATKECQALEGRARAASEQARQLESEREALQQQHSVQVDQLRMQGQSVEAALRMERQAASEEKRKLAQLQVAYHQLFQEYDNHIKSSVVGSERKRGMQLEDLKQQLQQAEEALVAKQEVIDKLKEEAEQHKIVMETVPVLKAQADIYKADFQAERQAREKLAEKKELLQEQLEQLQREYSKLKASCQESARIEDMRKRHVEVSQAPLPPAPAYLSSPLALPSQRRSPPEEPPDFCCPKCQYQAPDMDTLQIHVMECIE

Columns and labels:
Assay in all cases: log2 fold change, soluble protein after heating vs DMSO (PISA); higher = thermal stabilisation; K562 cells, 10 uM, 30 min; active = over 0.2 and 3.5 SD of the protein, either way, in both replicates (recomputed)
bafetinib = compound: Cc1ccc(NC(=O)c2ccc(CN3CC[C@H](N(C)C)C3)c(C(F)(F)F)c2)cc1Nc1nccc(-c2cncnc2)n1 [bafetinib]
Procedure, shortened: (§1)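 K562 cells at 2×10^6 cells/mL were treated for 30 min with 10 μM compound, and aliquots were heated for 3 min over 48°C-58°C before pooling. Extraction used PBS with 0.5% NP-40 at 4°C, and soluble protein was the supernatant after 21,000xg for 90 min, measured by TMTpro 16plex LC-MS/MS with channel sums equalised. Thermal stability values, relative to control samples and from duplicates, are log2 fold changes.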

[1] = compound: Cc1cccc(CC(=O)N2CCc3c2ccc(-c2cn(C)c4ncnc(N)c24)c3F)n1
Procedure, shortened: as §1

nilotinib = compound: Cc1cn(-c2cc(NC(=O)c3ccc(C)c(Nc4nccc(-c5cccnc5)n4)c3)cc(C(F)(F)F)c2)cn1 [nilotinib]
Procedure, shortened: as §1

[2] = compound: Cc1nc(Nc2n[nH]c3c2CN(C(=O)N[C@H](CN(C)C)c2ccccc2)C3(C)C)c2sccc2n1
Procedure, shortened: as §1

dasatinib = compound: Cc1nc(Nc2ncc(C(=O)Nc3c(C)cccc3Cl)s2)cc(N2CCN(CCO)CC2)n1 [dasatinib]
Procedure, shortened: as §1

[3] = compound: Cc1ncc(-c2ccnc(Nc3ccc(S(C)(=O)=O)cc3)n2)n1C(C)C
Procedure, shortened: as §1

[4] = compound: Cn1cc(-c2ccc3c(c2)CCN3C(=O)Cc2cccc(C(F)(F)F)c2)c2c(N)ncnc21
Procedure, shortened: as §1

[5] = compound: Cn1cc(-c2ccc3nnc(C(F)(F)c4ccc5ncccc5c4)n3n2)cn1
Procedure, shortened: as §1

tipifarnib = compound: Cn1cncc1[C@@](N)(c1ccc(Cl)cc1)c1ccc2c(c1)c(-c1cccc(Cl)c1)cc(=O)n2C [tipifarnib]
Procedure, shortened: as §1

mubritinib = compound: FC(F)(F)c1ccc(/C=C/c2nc(COc3ccc(CCCCn4ccnn4)cc3)co2)cc1 [mubritinib]
Procedure, shortened: as §1

[6] = compound: NC(=O)Nc1cc(-c2cccc(F)c2)sc1C(=O)N[C@H]1CCCNC1
Procedure, shortened: as §1

[7] = compound: NC(=O)c1cnc(N[C@@H]2CCCC[C@@H]2N)nc1Nc1cccc(-n2nccn2)c1
Procedure, shortened: as §1

[8] = compound: NC1(c2ccc(-c3nc4ccn5c(=O)[nH]nc5c4cc3-c3ccccc3)cc2)CCC1
Procedure, shortened: as §1

[9] = compound: NCC(=O)Nc1ccc(-n2nc(C(F)(F)F)cc2-c2ccc3c(ccc4ccccc43)c2)cc1
Procedure, shortened: as §1

entinostat = compound: Nc1ccccc1NC(=O)c1ccc(CNC(=O)OCc2cccnc2)cc1 [entinostat]
Procedure, shortened: as §1

vorinostat = compound: O=C(CCCCCCC(=O)Nc1ccccc1)NO [vorinostat]
Procedure, shortened: as §1

citarinostat = compound: O=C(CCCCCCNC(=O)c1cnc(N(c2ccccc2)c2ccccc2Cl)nc1)NO [citarinostat]
Procedure, shortened: as §1

silmitasertib = compound: O=C(O)c1ccc2c(c1)nc(Nc1cccc(Cl)c1)c1ccncc12 [silmitasertib]
Procedure, shortened: as §1

[10] = compound: O=C1NC(=O)C(c2cnc3ccccn23)=C1c1cn2c3c(cc(F)cc13)CN(C(=O)N1CCCCC1)CC2
Procedure, shortened: as §1

[11] = compound: c1cc(OCCN2CCCCC2)cc(-c2n[nH]c3ccc(-c4nnc[nH]4)cc23)c1
Procedure, shortened: as §1

Measured: log2 fold change

INPP4A (UniProt Q96PE3)
inactive: bafetinib -0.065 | [1] -0.138 | nilotinib 0.06 | [2] -0.018 | dasatinib 0.01 | [3] 0.038 | [4] 0.072 | [5] -0.034 | tipifarnib 0.02 | mubritinib 0.032 | [6] 0.017 | [7] -0.009 | [8] 0.021 | [9] -0.057 | entinostat -0.003 | vorinostat -0.012 | citarinostat 0.001 | silmitasertib 0.055 | [10] -0.134 | [11] 0.012

IFT80 isoform 3 (UniProt Q9P2H3)
inactive: bafetinib -0.127 | [1] 0.077 | nilotinib -0.059 | [2] -0.02 | dasatinib -0.148 | [3] 0.114 | [4] 0.036 | [5] 0.039 | tipifarnib -0.07 | mubritinib 0.17 | [6] 0.027 | [7] 0.031 | [8] -0.081 | [9] 0.003 | entinostat -0.005 | vorinostat 0.04 | citarinostat 0.011 | silmitasertib -0.085 | [10] -0.086 | [11] -0.093

INPPL1 (UniProt O15357)
inactive: bafetinib -0.077 | [1] -0.093 | nilotinib -0.255 | [2] -0.083 | dasatinib -0.038 | [3] -0.115 | [4] -0.049 | [5] 0.066 | tipifarnib 0.059 | mubritinib 0.025 | [6] -0.182 | [7] -0.032 | [8] -0.127 | [9] -0.049 | entinostat 0.015 | vorinostat 0.018 | citarinostat 0.048 | silmitasertib 0.132 | [10] 0.013 | [11] -0.177

IRF3 (UniProt Q14653)
inactive: bafetinib 0.033 | [1] 0.023 | nilotinib 0.066 | [2] -0.191 | dasatinib -0.1 | [3] -0.04 | [4] 0.106 | [5] 0.005 | tipifarnib -0.023 | mubritinib 0.039 | [7] -0.021 | [8] -0.021 | [9] -0.022 | entinostat -0.078 | vorinostat 0.06 | citarinostat 0.028 | silmitasertib -0.044 | [10] -0.047 | [11] -0.028
active: [6] 0.221

IMMT isoform 2 (UniProt Q16891)
inactive: bafetinib -0.081 | [1] 0.11 | nilotinib -0.007 | [2] -0.002 | dasatinib 0.144 | [3] -0.022 | [4] -0.037 | [5] 0.037 | tipifarnib 0.065 | mubritinib 0.066 | [6] 0 | [7] -0.045 | [8] -0.044 | [9] -0.066 | entinostat 0.039 | vorinostat 0.159 | citarinostat 0.042 | silmitasertib -0.066 | [10] 0.064 | [11] 0.008

ITGB1 (UniProt P05556)
inactive: bafetinib -0.037 | [1] -0.044 | nilotinib 0.026 | [2] -0.004 | dasatinib 0.025 | [3] -0.011 | [4] 0.011 | [5] 0.023 | tipifarnib 0.043 | mubritinib 0.002 | [6] -0.045 | [7] 0.091 | [8] 0.032 | [9] 0.069 | entinostat -0.022 | vorinostat -0.026 | citarinostat -0.001 | silmitasertib -0.016 | [10] -0.028 | [11] -0.026

2 records drawn at random from the list so far, as already listed:
IFT80 isoform 3 (UniProt Q9P2H3)
inactive: bafetinib -0.127 | [1] 0.077 | nilotinib -0.059 | [2] -0.02 | dasatinib -0.148 | [3] 0.114 | [4] 0.036 | [5] 0.039 | tipifarnib -0.07 | mubritinib 0.17 | [6] 0.027 | [7] 0.031 | [8] -0.081 | [9] 0.003 | entinostat -0.005 | vorinostat 0.04 | citarinostat 0.011 | silmitasertib -0.085 | [10] -0.086 | [11] -0.093

IMMT isoform 2 (UniProt Q16891)
inactive: bafetinib -0.081 | [1] 0.11 | nilotinib -0.007 | [2] -0.002 | dasatinib 0.144 | [3] -0.022 | [4] -0.037 | [5] 0.037 | tipifarnib 0.065 | mubritinib 0.066 | [6] 0 | [7] -0.045 | [8] -0.044 | [9] -0.066 | entinostat 0.039 | vorinostat 0.159 | citarinostat 0.042 | silmitasertib -0.066 | [10] 0.064 | [11] 0.008

(listing goes on)

IGHA1 (UniProt P01876)
inactive: bafetinib 1.09 | [1] -0.261 | nilotinib 0.899 | [2] -0.043 | dasatinib -0.46 | [3] 0.524 | [4] -0.349 | [5] 0.259 | tipifarnib 0.207 | mubritinib -0.298 | [6] 1.86 | [7] 0.746 | [8] 0.031 | [9] -0.122 | entinostat 0.007 | vorinostat -0.002 | citarinostat 0.567 | silmitasertib 0.921 | [10] 0.03 | [11] 0.018

ITIH4 (UniProt Q14624)
inactive: bafetinib -0.319 | [1] 0.117 | nilotinib -0.259 | [2] 0.194 | dasatinib 0.039 | [3] 0.225 | [4] 0.148 | [5] 0.114 | tipifarnib -0.038 | mubritinib -0.134 | [6] 0.064 | [7] -0.041 | [8] -0.136 | [9] -0.054 | entinostat 0.048 | vorinostat 0.343 | citarinostat 0.054 | silmitasertib 0.083 | [10] -0.005 | [11] 0.275

INTS3 (UniProt Q68E01)
inactive: bafetinib 0.059 | [1] 0.08 | nilotinib -0.029 | [2] -0.034 | dasatinib -0.045 | [3] -0.069 | [4] -0.026 | [5] -0.015 | tipifarnib 0.002 | mubritinib 0.006 | [6] -0.054 | [7] -0.099 | [8] -0.173 | [9] -0.07 | entinostat 0.021 | vorinostat 0.02 | citarinostat 0.096 | silmitasertib 0.123 | [10] 0.082 | [11] -0.11

INPP1 (UniProt P49441)
inactive: bafetinib 0.003 | [1] 0.094 | nilotinib -0.001 | [2] 0.067 | dasatinib 0.027 | [3] 0.053 | [4] 0.037 | [5] 0.027 | tipifarnib -0.135 | mubritinib 0.15 | [6] -0.11 | [7] -0.035 | [8] -0.108 | [9] -0.036 | entinostat -0.089 | vorinostat -0.066 | citarinostat 0.024 | silmitasertib -0.042 | [10] 0.023 | [11] -0.039

ITPRIP (UniProt Q8IWB1)
active: [8] -0.373
inactive: bafetinib -0.126 | [1] -0.016 | nilotinib -0.109 | [2] 0.035 | dasatinib -0.041 | [3] -0.08 | [4] 0.073 | [5] 0.012 | tipifarnib -0.007 | mubritinib 0.061 | [6] -0.041 | [7] -0.031 | [9] -0.021 | entinostat -0.01 | vorinostat -0.08 | citarinostat -0.076 | silmitasertib -0.009 | [10] 0.019 | [11] -0.06

IRF2BPL (UniProt Q9H1B7)
inactive: bafetinib -0.038 | [1] 0.012 | nilotinib -0.07 | [2] -0.034 | dasatinib -0.034 | [3] -0.029 | [4] 0.083 | [5] -0.084 | tipifarnib -0.067 | mubritinib -0.055 | [6] 0.032 | [7] 0.011 | [8] 0.013 | [9] -0.004 | entinostat -0.024 | vorinostat 0.007 | citarinostat -0.001 | silmitasertib 0.027 | [11] -0.03
active: [10] -0.218

IREB2 (UniProt P48200)
inactive: bafetinib -0.068 | [1] 0.011 | nilotinib -0.035 | [2] -0.023 | dasatinib 0.064 | [3] 0 | [4] 0.083 | [5] -0.015 | tipifarnib 0.022 | mubritinib 0.102 | [6] -0.059 | [7] -0.011 | [8] -0.127 | [9] -0.031 | entinostat 0.02 | vorinostat 0.088 | citarinostat 0.018 | silmitasertib -0.029 | [10] 0.007 | [11] -0.01

ILKAP (UniProt Q9H0C8)
inactive: bafetinib 0.028 | [1] 0.079 | nilotinib 0.052 | [2] -0.117 | dasatinib -0.208 | [3] 0.02 | [4] 0.036 | [5] 0.045 | tipifarnib -0.093 | mubritinib 0.137 | [6] 0.015 | [7] -0.052 | [8] -0.224 | [9] -0.164 | entinostat 0.038 | vorinostat 0.06 | citarinostat 0.123 | silmitasertib 0.004 | [10] -0.144 | [11] -0.003

IFI30 (UniProt P13284)
active: bafetinib -0.41
inactive: [1] 0.007 | nilotinib 0.068 | [2] 0.015 | dasatinib 0.016 | [3] -0.049 | [4] 0.097 | [5] 0.002 | tipifarnib 0.04 | mubritinib 0.044 | [6] 0.035 | [7] 0.127 | [8] -0.048 | [9] 0.083 | entinostat -0.052 | vorinostat 0.03 | citarinostat 0.059 | silmitasertib -0.052 | [10] 0.128 | [11] -0.028

IKBKG isoform 2 (UniProt Q9Y6K9)
inactive: bafetinib 0.003 | [1] -0.018 | nilotinib -0.072 | [2] -0.029 | dasatinib 0.109 | [3] 0.025 | [4] -0.047 | [5] -0.111 | tipifarnib 0.012 | mubritinib 0.026 | [6] -0.03 | [7] -0.033 | [8] 0.055 | [9] -0.033 | entinostat -0.025 | vorinostat -0.04 | citarinostat 0.007 | silmitasertib -0.001 | [10] -0.005 | [11] -0.093
